Measured values taken from PubChem BioAssay AID493014 (National Center for Advancing Translational Sciences (NCATS), 2011).
The campaign covered roughly 340,000 compounds. About 170 (0.05%) were called active. Inconclusive means that the source gave no clear call. Such entries were picked first, then a sample of the others. Calls follow the shape of the dose curve; as a rule, active = well fitted inhibition curve with a large enough effect in the signal ratio, with a control signal flat (not every such curve was filed as active); inconclusive = small, poorly fitted or top-dose-only effect, or effect the other way, or a change in a side signal; inactive = flat fitted curve, though single readings scatter; the % refers to the signal ratio. Where the call is inconclusive, the potency comes from a doubtful curve fit.

Experiment: qHTS Assay to Find Inhibitors of Chronic Active B-Cell Receptor Signaling;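 as to activity change, negative = inhibition: plate controls were basal doxycycline-induced cells for no effect and cells given 10 µM MG132 for full effect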
Details: ABC-DLBCL IkBa-CBG/CBR reporter, luminescence ratio (green luciferase fused to IkBa over red control in TMD8 lymphoma cells), 4 h; activity change, negative = inhibition: at 46.1 µM (top of the series)
Summary of the method: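 Doxycycline induced both beetle luciferases in TMD8 lymphoma cells; IKK-driven degradation limits the IkappaBalpha-fused green signal, while red luminescence normalises for cell number and nonspecific effects. Compounds tested up to 46 uM, 4 hrs.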
Potency is read from the fitted curve at half-maximal effect.

Structure (SMILES)	activity change, negative = inhibition	Potency
CN1CCCC(C(O)(c2ccccc2)c2ccccc2)C1 (stereo not drawn)	inconclusive: -2.06%	
CN(C=O)CP(=O)(O)CN(C)C=O	inactive: -10.7%	
Cc1cc(/C=C2\C(=O)NC(=O)N(c3ccc(Cl)cc3)C2=O)c(C)n1-c1cccc(C(=O)O)c1	inconclusive: 2.4%	
CC1=NN(c2ccccc2)C(=O)C1/C=C1/C(=O)NC(=O)N(c2cccc(C)c2)C1=O (stereo not drawn)	inactive: 16.2%	
CN1C(=O)C(=Cc2ccccc2OCc2ccc(Cl)cc2)C(=O)N(C)C1=O	inconclusive: 0.719%	
O=[N+]([O-])c1ccc(CN2CC=C(c3ccccc3)CC2)cc1	inconclusive: -18.2%	
Cc1cc(OCC(=O)N[C@@H](Cc2ccccc2)C(=O)O)c2c3c(c(=O)oc2c1)CCCC3		inconclusive: 17.8 µM [rising, partial curve, poor fit]
Cc1cc(/C=C2/C(=O)NC(=O)N(Cc3ccco3)C2=O)c(C)n1-c1ccccc1O	inconclusive: -1.08%	
C=CCN(C1CCCCC1)S(=O)(=O)c1ccc2c(c1)oc(=O)n2C	inconclusive: -2.7%	
COc1ccccc1N1CCN(C(=O)CCS(=O)(=O)c2ccc3c(c2)oc(=O)n3C)CC1	inconclusive: -3.36%	
O=C(COc1ccc(Cl)cc1)N(c1ccc(Cl)cc1)C1CN2CCC1CC2 (stereo not drawn)		inconclusive: 12.6 µM [falling, partial curve, poor fit]
Cc1nc2ccccc2c(=O)n1-c1ccc([N+](=O)[O-])cc1	inconclusive: 0.668%	
CCN1C(=O)/C(=C\c2ccc([N+](=O)[O-])s2)C(=O)NC1=S	inconclusive: 12.5%	
S=c1[nH]nc(-c2cc(-c3ccccc3)n[nH]2)n1/N=C/C(Br)=C/c1ccccc1	inconclusive: 24.2%	
COc1ccc(-c2cc(=O)c3c(OC)c(OC)c(OC)cc3o2)cc1	inconclusive: 7.83%	
Oc1ccc2c3c1O[C@H]1c4[nH]c5ccccc5c4C[C@@]4(O)[C@@H](C2)N(CC2CC2)CC[C@]314	inconclusive: -20.6%	
COc1ccc(OC)c(C2=NS(=O)(=O)N(C)C(C(=O)Nc3ccc(F)cc3F)=C2)c1		inconclusive: 31.6 µM [falling, single point]
CC1N(O)C2CCCCCC2N1O (stereo not drawn)		inconclusive: 3.66 µM [falling, partial curve, poor fit]
COc1ccc(C(=O)c2nc3ccccc3n2C(C)C)cc1OC	inconclusive: -0.158%	
O=C(Nc1ccccc1)c1cc([N+](=O)[O-])ccc1N1CCNCC1	inconclusive: 12.9%	
CC(=O)c1ccc(NC(=O)COc2ccc3c(c2)OCO3)cc1	inconclusive: -13.2%	
O=[N+]([O-])C1=CC=C2C(=NC3(CCCCC3)N2O)C1=NCCO	inconclusive: 12.2%	
CCOC(=O)C1(CCc2ccccc2)CCN(Cc2ccc3c(c2)OCCO3)CC1	inactive: 1.07%	
O=C(Nc1ccc2c(c1)OCO2)c1cccn(Cc2ccc(F)cc2)c1=O	inconclusive: -10.3%	

Structure (SMILES)	activity change, negative = inhibition	Potency
Cc1ccc(C2=NCC(=O)Nc3ccc(Br)cc32)cc1	inconclusive: -9.21%	
CN1CC(C(=O)c2ccc(Cl)cc2)C(c2ccc(N(C)C)cc2)C1 (stereo not drawn)		inconclusive: 35.5 µM [falling, partial curve, poor fit]
COc1ccc(NC(=O)c2cc([N+](=O)[O-])ccc2N2CCNCC2)cc1		inconclusive: 17.8 µM [falling, single point]
COc1ccc2nc(NC(=O)C3CCN(S(=O)(=O)c4cccc5nsnc45)CC3)sc2c1	inconclusive: 6.12%	
OC(c1ccccc1)(c1ccc(Cl)cc1)C1CN2CCC1CC2 (stereo not drawn)		inconclusive: 12.6 µM [falling, partial curve, poor fit]
CCC(CC)C1C(C#N)=C(N)Oc2c1c(=O)oc1ccccc21 (stereo not drawn)		inconclusive: 25.9 µM [falling, partial curve, poor fit]
O=C1CC(=O)N(c2ccccc2)C(=O)N1c1ccccc1		inconclusive: 35.5 µM [falling, single point]
C/C(=N\NC(=O)c1ccccc1O)c1c(O)n(Cc2ccccc2)c(=O)[nH]c1=O		inconclusive: 5.62 µM [rising, single point]
CC(C)[C@]12O[C@H]1[C@@H]1O[C@]13[C@]1(O[C@H]1C[C@H]1C4=C(CC[C@@]13C)C(=O)OC4)[C@@H]2O		inconclusive: 0.0891 µM [rising, full curve, poor fit]
C/C(=N\N=C(N)N)c1ccccc1	inactive: 2.94%	
N=C1c2ccccc2CN1NC(=O)c1ccccc1		inconclusive: 29.1 µM [rising, single point]
O=c1cccc2n1CC1CNC[C@H]2C1	inactive: -3.63%	
CCOc1ccc(Br)c(C2(O)CC(C)N(C)CC2C)c1 (stereo not drawn)	inconclusive: -2.41%	
Cc1cc(N2C(=O)C3CCCN3C2c2sccc2C)no1 (stereo not drawn)	inconclusive: 6.96%	
COc1cc2c(c(OC)c1OC)-c1ccc(OC)c(=O)cc1C(NC(C)=O)CC2 (stereo not drawn)		inconclusive: 0.112 µM [falling, full curve, poor fit]
CC1=CC(=Cc2sc3ccccc3[n+]2C)C=C(C)O1	inconclusive: 13.2%	
Cc1c(C(=O)NCCSCc2ccc(Cl)cc2Cl)cccc1[N+](=O)[O-]	inconclusive: -0.0346%	
C[C@H](NC(=O)N1C[C@H]2C[C@@H](C1)c1cccc(=O)n1C2)C(=O)Nc1ccc(F)c(F)c1	inactive: -1.55%	
COc1ccc(C(=O)CC2C(=O)N(C)C(=O)N(C)C2=O)cc1	inconclusive: 9.57%	
C=CCN1C(=O)/C(=C/c2ccc(Br)s2)C(=O)NC1=S	inactive: -2.26%	
CS(=O)(=O)N1CCN(C(=N)N[N+](=O)[O-])CC1		inconclusive: 20 µM [falling, single point]
COc1ccc(C)cc1NC(=O)c1c(C)nn(Cc2ccccc2)c1Cl	inconclusive: 8.16%	
CC1=NN(c2ccccc2)C(=O)C1/C=C1\C(=O)NC(=O)N(c2cc(C)cc(C)c2)C1=O (stereo not drawn)		inconclusive: 11.6 µM [rising, partial curve]
Cc1nc(NC(=O)c2cc3c(s2)CCCCC3)sc1C(=O)N(C)C	inconclusive: -11.1%	

In the list so far, three contain an NH in an aromatic ring:
Structure (SMILES)	activity change, negative = inhibition	Potency
S=c1[nH]nc(-c2cc(-c3ccccc3)n[nH]2)n1/N=C/C(Br)=C/c1ccccc1	inconclusive: 24.2%	
Oc1ccc2c3c1O[C@H]1c4[nH]c5ccccc5c4C[C@@]4(O)[C@@H](C2)N(CC2CC2)CC[C@]314	inconclusive: -20.6%	
C/C(=N\NC(=O)c1ccccc1O)c1c(O)n(Cc2ccccc2)c(=O)[nH]c1=O		inconclusive: 5.62 µM [rising, single point]
